Values of other authors in patent publication US12191014B1, “Personal analysis and chronotherapy” (CERNER INNOVATION, INC., priority 2013, dated 2025).
For at least one compound, name, drawing or mass did not settle the structure.

Tested on: blood pressure of patients
Details: ARB, bedtime in comparison with morning ingestion schedule; cited from earlier work

In the case of `CCCc1nc(C(C)(C)O)c(C(=O)O)n1Cc1ccc(-c2ccccc2-c2nnn[nH]2)cc1` [olmesartan], the “therapeutic effect on sleeping BP” value is listed as “greater therapeutic effect on sleeping BP”.
